According to article PMC8639993:
No constants are given. Whether binding was seen depends on the method and setting. Binding seen in cells or lysates may run through a third protein. A yes stands for co-enrichment or nearness to the bait. Other partners may have been found.

By UniProt entry, the sequences of proteins in these tests, tags left out.
UniProt Q5VTD9: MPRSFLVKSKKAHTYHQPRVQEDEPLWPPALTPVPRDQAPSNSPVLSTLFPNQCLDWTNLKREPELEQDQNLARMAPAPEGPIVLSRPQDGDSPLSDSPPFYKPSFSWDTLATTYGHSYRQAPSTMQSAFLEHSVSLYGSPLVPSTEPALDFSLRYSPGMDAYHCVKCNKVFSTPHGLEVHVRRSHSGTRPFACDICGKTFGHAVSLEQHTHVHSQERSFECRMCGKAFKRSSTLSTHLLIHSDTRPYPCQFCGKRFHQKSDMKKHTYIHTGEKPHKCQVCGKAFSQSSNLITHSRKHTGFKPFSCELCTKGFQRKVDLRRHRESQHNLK
UniProt Q99684: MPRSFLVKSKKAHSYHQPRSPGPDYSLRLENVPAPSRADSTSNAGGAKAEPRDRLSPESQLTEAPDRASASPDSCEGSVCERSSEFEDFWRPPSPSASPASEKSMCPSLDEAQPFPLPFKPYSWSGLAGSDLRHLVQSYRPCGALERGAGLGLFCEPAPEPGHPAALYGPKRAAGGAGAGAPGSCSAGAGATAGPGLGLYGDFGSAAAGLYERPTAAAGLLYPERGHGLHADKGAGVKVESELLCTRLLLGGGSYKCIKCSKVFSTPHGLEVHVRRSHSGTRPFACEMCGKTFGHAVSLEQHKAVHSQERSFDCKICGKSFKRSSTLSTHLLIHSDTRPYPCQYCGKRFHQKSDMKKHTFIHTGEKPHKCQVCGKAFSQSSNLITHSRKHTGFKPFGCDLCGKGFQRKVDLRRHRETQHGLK
UniProt Q13547: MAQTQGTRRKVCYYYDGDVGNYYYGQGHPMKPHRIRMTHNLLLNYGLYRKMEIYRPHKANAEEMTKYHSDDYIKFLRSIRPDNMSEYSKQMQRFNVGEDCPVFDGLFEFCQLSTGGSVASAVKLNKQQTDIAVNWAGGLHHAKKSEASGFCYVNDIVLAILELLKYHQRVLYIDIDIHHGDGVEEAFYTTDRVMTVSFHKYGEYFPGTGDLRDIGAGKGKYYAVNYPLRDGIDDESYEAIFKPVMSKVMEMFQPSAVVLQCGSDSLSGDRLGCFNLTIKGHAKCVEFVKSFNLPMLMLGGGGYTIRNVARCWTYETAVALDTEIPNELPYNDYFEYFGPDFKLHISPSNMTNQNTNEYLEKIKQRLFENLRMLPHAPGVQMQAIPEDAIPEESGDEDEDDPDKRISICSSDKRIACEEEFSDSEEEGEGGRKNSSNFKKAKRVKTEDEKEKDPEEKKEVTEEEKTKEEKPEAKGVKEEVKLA
UniProt Q9UKL0: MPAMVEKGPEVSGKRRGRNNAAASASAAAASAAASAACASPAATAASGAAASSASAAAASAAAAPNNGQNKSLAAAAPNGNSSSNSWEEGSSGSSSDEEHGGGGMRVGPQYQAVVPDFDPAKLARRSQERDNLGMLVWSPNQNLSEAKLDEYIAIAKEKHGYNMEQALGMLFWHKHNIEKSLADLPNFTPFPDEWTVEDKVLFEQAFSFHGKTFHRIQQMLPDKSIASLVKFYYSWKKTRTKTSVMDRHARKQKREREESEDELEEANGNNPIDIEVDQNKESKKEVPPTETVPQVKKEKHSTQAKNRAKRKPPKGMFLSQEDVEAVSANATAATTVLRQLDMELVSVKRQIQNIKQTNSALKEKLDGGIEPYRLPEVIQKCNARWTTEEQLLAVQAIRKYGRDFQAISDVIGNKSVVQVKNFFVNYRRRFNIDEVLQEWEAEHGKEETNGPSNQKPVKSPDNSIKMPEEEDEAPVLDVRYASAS
UniProt Q8IZ40: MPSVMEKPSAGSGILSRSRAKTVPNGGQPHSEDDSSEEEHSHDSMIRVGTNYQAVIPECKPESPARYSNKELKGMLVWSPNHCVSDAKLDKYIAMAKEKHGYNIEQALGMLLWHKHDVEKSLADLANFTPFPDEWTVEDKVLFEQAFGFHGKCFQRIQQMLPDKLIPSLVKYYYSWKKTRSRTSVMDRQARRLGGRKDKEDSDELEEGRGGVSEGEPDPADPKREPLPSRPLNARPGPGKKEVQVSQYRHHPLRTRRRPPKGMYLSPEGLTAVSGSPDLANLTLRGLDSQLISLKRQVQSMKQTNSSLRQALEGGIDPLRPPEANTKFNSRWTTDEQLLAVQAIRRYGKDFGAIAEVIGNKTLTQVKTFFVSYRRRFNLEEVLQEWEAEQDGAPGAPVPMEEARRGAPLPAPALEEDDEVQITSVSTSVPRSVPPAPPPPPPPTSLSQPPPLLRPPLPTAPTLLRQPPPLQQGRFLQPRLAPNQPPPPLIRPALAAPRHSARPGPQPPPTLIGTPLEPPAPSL
UniProt Q12873: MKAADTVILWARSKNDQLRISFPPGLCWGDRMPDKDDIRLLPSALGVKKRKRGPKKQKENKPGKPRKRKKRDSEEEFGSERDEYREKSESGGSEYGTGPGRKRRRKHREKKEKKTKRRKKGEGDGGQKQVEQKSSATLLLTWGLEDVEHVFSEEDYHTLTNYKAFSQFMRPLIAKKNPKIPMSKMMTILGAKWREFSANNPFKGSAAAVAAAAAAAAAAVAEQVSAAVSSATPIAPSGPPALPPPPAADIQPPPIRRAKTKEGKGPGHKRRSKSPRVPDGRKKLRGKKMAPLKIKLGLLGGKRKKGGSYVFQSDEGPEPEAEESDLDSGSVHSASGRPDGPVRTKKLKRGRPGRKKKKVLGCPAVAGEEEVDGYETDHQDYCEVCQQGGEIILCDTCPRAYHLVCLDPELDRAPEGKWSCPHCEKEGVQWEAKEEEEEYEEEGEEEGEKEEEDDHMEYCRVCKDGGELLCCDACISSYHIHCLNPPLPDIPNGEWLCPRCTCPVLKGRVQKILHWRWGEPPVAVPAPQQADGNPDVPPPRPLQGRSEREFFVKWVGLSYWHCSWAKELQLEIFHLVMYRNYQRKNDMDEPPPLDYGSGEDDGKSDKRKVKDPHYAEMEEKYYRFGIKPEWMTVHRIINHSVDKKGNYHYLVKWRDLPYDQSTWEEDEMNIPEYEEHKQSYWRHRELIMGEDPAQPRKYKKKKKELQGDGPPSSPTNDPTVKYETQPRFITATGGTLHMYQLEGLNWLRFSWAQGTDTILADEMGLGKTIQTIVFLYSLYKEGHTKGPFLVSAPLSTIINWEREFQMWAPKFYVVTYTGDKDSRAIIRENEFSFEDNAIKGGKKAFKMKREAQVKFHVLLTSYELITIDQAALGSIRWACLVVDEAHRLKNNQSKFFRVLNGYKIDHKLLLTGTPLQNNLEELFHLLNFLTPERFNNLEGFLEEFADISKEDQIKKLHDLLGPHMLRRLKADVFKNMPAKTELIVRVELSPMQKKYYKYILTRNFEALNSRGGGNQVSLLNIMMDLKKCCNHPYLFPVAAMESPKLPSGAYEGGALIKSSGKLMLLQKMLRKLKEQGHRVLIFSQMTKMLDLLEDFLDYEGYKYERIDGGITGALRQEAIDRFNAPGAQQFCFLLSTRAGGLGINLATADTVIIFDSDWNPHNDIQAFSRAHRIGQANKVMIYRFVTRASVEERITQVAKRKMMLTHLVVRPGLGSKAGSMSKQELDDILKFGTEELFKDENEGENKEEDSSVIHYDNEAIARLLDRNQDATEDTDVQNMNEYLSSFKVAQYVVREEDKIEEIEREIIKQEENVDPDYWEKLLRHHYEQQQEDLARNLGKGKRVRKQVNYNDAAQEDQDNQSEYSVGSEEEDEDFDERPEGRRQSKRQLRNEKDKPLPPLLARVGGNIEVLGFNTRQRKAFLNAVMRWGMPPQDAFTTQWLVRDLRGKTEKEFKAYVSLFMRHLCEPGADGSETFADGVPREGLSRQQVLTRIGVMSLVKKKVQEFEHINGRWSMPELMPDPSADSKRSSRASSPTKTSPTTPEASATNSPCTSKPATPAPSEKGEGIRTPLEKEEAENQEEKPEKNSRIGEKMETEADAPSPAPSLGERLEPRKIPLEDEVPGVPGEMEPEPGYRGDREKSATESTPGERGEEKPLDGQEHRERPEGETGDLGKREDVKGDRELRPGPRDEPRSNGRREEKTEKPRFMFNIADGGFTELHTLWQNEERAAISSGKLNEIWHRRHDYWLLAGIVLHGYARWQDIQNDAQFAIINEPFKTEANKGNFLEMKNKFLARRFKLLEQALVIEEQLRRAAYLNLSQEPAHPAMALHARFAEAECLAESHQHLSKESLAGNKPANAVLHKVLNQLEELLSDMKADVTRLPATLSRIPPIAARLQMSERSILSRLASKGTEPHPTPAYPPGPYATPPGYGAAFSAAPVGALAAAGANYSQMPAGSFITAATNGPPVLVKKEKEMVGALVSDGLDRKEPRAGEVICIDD
UniProt Q14839: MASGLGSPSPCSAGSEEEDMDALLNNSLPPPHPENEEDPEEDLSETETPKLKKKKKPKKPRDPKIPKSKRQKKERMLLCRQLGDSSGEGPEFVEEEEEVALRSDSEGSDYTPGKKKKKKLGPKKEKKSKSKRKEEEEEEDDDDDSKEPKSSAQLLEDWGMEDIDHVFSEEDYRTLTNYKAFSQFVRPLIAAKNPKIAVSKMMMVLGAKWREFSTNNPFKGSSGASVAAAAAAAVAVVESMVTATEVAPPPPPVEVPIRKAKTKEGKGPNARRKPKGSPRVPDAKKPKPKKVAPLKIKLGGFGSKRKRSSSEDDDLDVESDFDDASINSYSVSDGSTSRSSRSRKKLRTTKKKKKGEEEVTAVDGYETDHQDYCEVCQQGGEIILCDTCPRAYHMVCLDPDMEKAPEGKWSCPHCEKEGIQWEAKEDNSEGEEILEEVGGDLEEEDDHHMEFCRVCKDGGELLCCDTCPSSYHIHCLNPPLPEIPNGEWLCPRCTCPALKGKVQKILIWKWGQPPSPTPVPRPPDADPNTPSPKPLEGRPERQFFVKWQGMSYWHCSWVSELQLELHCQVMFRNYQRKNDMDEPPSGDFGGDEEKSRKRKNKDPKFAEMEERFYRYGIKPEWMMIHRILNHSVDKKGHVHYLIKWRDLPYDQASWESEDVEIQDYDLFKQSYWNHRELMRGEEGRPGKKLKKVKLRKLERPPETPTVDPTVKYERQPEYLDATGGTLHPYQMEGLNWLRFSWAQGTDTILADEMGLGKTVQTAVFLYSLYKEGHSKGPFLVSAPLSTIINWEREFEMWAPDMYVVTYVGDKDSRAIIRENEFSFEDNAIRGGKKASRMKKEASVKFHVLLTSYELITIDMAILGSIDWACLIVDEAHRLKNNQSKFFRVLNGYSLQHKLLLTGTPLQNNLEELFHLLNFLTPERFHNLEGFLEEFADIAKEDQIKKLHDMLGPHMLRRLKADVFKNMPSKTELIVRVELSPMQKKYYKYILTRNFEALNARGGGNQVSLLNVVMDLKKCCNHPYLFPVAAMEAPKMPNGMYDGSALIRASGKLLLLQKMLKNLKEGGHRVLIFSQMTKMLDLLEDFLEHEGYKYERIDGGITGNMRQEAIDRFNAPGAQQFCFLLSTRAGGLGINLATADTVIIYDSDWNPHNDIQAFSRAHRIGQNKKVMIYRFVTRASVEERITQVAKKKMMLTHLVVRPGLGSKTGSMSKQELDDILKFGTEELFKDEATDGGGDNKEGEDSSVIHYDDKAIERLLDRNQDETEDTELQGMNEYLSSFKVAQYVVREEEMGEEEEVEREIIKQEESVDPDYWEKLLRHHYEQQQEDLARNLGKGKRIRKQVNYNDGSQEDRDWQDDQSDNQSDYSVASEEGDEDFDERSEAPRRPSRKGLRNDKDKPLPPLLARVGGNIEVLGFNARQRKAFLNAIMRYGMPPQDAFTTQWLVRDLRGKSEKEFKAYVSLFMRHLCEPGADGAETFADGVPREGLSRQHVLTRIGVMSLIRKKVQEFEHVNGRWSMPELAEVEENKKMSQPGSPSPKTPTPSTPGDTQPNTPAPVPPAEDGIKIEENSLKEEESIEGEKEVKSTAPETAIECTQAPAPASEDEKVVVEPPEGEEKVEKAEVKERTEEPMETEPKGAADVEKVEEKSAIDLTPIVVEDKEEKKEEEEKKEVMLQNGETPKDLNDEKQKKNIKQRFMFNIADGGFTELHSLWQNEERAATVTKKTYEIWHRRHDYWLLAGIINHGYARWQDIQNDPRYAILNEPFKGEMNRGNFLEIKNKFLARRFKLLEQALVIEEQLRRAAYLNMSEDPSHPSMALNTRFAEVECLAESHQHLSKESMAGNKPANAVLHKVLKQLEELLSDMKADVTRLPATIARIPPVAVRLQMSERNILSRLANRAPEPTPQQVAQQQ
UniProt Q09028: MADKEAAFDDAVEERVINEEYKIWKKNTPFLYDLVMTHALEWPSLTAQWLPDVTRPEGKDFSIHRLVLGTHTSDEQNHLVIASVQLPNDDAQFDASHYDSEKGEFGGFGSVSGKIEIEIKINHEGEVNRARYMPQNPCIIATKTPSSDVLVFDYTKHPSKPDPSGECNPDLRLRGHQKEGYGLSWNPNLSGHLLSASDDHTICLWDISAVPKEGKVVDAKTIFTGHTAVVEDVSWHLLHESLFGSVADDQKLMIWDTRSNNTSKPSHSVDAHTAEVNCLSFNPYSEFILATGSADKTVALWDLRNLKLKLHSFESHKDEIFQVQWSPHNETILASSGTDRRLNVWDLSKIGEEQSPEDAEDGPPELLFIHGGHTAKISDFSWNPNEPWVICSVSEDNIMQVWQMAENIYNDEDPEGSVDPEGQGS

Tests used:
GFI1BWT-BirA*-Flag = GFI1BWT-BirA*-Flag (UniProt Q5VTD9); test: proximity labelling; BioID with GFI1BWT-BirA*-Flag; samples generated in the authors' previous work (ref. 37), processed with SAINT/ProHits and shown here beside GFI1 (Fig. 1C)
GFI1WT-BirA*-Flag = GFI1WT-BirA*-Flag (UniProt Q99684); test: proximity labelling; BioID: Flp-In T-REx HEK293T cells expressing GFI1WT-BirA*-Flag or GFI1ΔSNAG-BirA*-Flag, 50 µM biotin and 1 µg/ml tetracycline for 24 h; RIPA lysis with benzonase; streptavidin-sepharose; mass spectrometry; SAINT filtering against BirA*-Flag controls
[1] = target: GFI1-Flag fusion protein (full-length Flag-tagged GFI1) (UniProt Q99684); test: affinity purification with mass spectrometry; Flag-tagged GFI1 or GFI1B expressed in HEK293T cells as bait; co-purified proteins identified by mass spectrometry (refs. 36, 37 cited)
[2] = target: GFI1B-Flag-tagged fusion protein (UniProt Q5VTD9); test: as above

Measured: binding

GATA Zinc Finger Domain Containing 2B (GATAD2B) (from UniProt Q8WXI9 1-593)
binds: GFI1BWT-BirA*-Flag | GFI1WT-BirA*-Flag

HDAC1 (from UniProt Q13547 1-482) (enzyme)
binds: all assays above

HDAC2 (from UniProt Q92769 1-488) (enzyme)
binds: GFI1BWT-BirA*-Flag | GFI1WT-BirA*-Flag

RCOR1 (from UniProt Q9UKL0 1-485)
binds: [1] | GFI1WT-BirA*-Flag

RCOR2 (from UniProt Q8IZ40 1-523)
binds: all assays above

RCOR3 (from UniProt Q9P2K3 1-495)
binds: all assays above

chromodomain helicase DNA binding protein 3 (CHD3) (from UniProt Q12873 1-2000)
binds: all assays above

chromodomain helicase DNA binding protein 4 (CHD4) (from UniProt Q14839 1-1912)
binds: all assays above

retinoblastoma binding protein 4 (RBBP4) (from UniProt Q09028 1-425)
binds: all assays above
